This note sets out measurements from publication PMC10360236.

The chains behind the UniProt entries cited, without tags or fusion partners.
UniProt P55128: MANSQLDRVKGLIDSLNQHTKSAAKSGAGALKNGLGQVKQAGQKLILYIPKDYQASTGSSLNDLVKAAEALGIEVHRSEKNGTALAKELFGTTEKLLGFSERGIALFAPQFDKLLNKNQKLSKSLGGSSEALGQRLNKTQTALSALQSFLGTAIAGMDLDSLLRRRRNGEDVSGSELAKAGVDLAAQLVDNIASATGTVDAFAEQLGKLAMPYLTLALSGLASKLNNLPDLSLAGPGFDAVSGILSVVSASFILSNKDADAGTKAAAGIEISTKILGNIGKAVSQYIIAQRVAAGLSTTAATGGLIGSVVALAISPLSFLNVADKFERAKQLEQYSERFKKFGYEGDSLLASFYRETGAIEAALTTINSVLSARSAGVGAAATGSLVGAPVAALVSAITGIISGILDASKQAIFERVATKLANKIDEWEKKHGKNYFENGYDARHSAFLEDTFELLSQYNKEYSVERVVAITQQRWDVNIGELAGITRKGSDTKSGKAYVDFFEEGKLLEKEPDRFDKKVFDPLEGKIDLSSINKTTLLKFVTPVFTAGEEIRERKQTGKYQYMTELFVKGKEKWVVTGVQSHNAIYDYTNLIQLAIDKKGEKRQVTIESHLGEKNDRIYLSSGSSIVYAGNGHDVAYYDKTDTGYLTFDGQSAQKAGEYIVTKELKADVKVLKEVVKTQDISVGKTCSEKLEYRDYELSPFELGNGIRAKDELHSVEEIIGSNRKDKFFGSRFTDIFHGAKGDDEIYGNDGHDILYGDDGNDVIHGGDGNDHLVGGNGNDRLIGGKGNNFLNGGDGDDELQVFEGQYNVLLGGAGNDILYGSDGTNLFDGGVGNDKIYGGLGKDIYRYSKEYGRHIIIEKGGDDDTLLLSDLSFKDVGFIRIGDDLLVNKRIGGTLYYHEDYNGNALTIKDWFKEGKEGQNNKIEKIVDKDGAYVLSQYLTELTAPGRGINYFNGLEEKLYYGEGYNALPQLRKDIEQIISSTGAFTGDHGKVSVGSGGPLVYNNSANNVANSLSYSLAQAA

No constants are given. Whether binding was seen depends on the method and setting. Binding seen in cells or lysates may run through a third protein. A yes stands for co-enrichment or nearness to the bait. Other partners may have been found.

The target in the assay is His-TurboID-ApxIA recombinant protein (Actinobacillus pleuropneumoniae serotype 1) (UniProt P55128). In words: proximity labelling; 16 ug purified His-TurboID-ApxIA (control His-TurboID) added to iPAM cells on ice for 1 h, then 50 uM biotin at 37 °C for 20 min; lysis, streptavidin magnetic beads, mass spectrometry; proteins unique to the His-TurboID-ApxIA group taken as interacting; only the target purified.

B1: caveolin-1 (CAV1), endogenous in iPAM cells (protein, UniProt Q6RVA9 1-178)
chain: MSGGKYVDSEGHLYTVPIREQGNIYKPNNKAMAEEMNEKQVYDAHTKEIDLVNRDPKHLNDDVVKIDFEDVIAEPEGTHSFDGIWKASFTTFTVTKYWFYRLLSALFGIPMALIWGIYFAILSFLHIWAVVPCIKSFLIEIQCISRVYSIYVHTFCDPLFEAIGKIFSNIRINMQKEI
As for B1, the binding result is “binds”.
